Data as given in PubChem BioAssay AID1159584 (Peter MacCallum Cancer Centre, 2016).

- Aim: 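Knock-downs that harm CDH1-null cells more than parental MCF10A cells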 (primary screen)
- System: human MCF10A breast epithelial cells, parental and CDH1-null
- Reagent: siRNA against human genes
- Measurement: 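Cell viability by CellTiter-Glo ATP luminescence, each line scaled to the mean of mock wells across plates, then CDH1-null over parental ratio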
- Reading the numbers: CDH1-null / parental viability ratio: higher = CDH1-null cells survive relatively better than parental; CDH1-null viability vs mock: higher = more viable CDH1-null cells; parental viability vs mock: higher = more viable parental cells
In all, the deposit lists about 18,000 reagents; shown is a random part of them. Reagents against one gene are numbered here. Not given: the amount of reagent, the time to read-out.

no.	Target gene	reagent no.	CDH1-null / parental viability ratio	CDH1-null viability vs mock (fraction of mock)	parental viability vs mock (fraction of mock)
1	ATP6V1B1 (ATPase H+ transporting V1 subunit B1)	1	0.85	0.66	0.78
2	CCDC7 (coiled-coil domain containing 7)	1	1.21	0.97	0.8
3	CCDC7 (coiled-coil domain containing 7)	2	1.23	0.7	0.57
4	ADAM12 (ADAM metallopeptidase domain 12)	1	1.28	0.82	0.64
5	ERCC6 (ERCC excision repair 6, chromatin remodeling factor)	1	0.92	0.81	0.88
6	TRMT10B (tRNA methyltransferase 10B)	1	1.4	1.29	0.92
7	SS18L1 (SS18L1 subunit of BAF chromatin remodeling complex)	1	0.97	0.66	0.68
8	DGKA (diacylglycerol kinase alpha)	1	1	0.73	0.73
9	PRKCG (protein kinase C gamma)	1	0.96	0.98	1.02
10	GBGT1	1	0.91	0.84	0.92
11	KIF9 (kinesin family member 9)	1	1.15	0.9	0.78
12	AGR2	1	0.75	0.36	0.48
13	KLHL8 (kelch like family member 8)	1	0.96	0.72	0.75
14	DALRD3 (DALR anticodon binding domain containing 3)	1	0.75	0.38	0.51
15	LCN1 (lipocalin 1)	1	0.97	0.88	0.91
16	PPP1R9A (protein phosphatase 1 regulatory subunit 9A)	1	0.74	0.74	1
17	MFNG (MFNG O-fucosylpeptide 3-beta-N-acetylglucosaminyltransferase)	1	1.08	0.67	0.62
18	ATP5F1D (ATP synthase F1 subunit delta)	1	0.86	0.95	1.1
19	BAGE4 (BAGE family member 4)	1	1.11	0.91	0.82
20	SORBS3 (sorbin and SH3 domain containing 3)	1	0.85	0.66	0.78
21	HOXC11 (homeobox C11)	1	0.93	1.02	1.1
22	SLC35G3	1	1.05	0.67	0.64
23	ASNSD1 (asparagine synthetase domain containing 1)	1	0.98	0.9	0.92
24	S100G (S100 calcium binding protein G)	1	0.84	0.51	0.61
25	ERGIC2 (ERGIC and golgi 2)	1	0.81	0.72	0.89
26	PEX14 (peroxisomal biogenesis factor 14)	1	1.24	1.02	0.82
27	RRM2 (ribonucleotide reductase regulatory subunit M2)	1	1.62	0.52	0.32
28	RRM2 (ribonucleotide reductase regulatory subunit M2)	2	1.17	0.82	0.7

In a second layout: entries from further up
Target gene | reagent no. | CDH1-null / parental viability ratio | CDH1-null viability vs mock (fraction of mock) | parental viability vs mock (fraction of mock)
DALRD3 (DALR anticodon binding domain containing 3) | 1 | 0.75 | 0.38 | 0.51
LCN1 (lipocalin 1) | 1 | 0.97 | 0.88 | 0.91
PPP1R9A (protein phosphatase 1 regulatory subunit 9A) | 1 | 0.74 | 0.74 | 1
MFNG (MFNG O-fucosylpeptide 3-beta-N-acetylglucosaminyltransferase) | 1 | 1.08 | 0.67 | 0.62
